# Measured values published in PMC11405865.
# These are yes or no findings as the source states them, for the method shown. Binding seen in cells or lysates may run through a third protein. Some binding calls cover weakened binding; strength is not graded here. Sequences can lack the tags named with a protein.
# T1: ELT-3::FLAG (C. elegans) (UniProt B7WN96)
# T1 sequence: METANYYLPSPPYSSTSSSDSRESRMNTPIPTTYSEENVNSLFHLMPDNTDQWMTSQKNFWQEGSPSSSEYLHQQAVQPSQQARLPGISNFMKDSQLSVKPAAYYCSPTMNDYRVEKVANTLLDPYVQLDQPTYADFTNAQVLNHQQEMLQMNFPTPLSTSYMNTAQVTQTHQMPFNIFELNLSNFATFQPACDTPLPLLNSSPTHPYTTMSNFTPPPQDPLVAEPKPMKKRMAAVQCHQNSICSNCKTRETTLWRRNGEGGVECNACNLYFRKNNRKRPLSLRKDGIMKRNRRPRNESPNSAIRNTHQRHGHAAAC
# T2: PQM-1::FLAG (C. elegans) (UniProt G5EFY7)
# T2 sequence: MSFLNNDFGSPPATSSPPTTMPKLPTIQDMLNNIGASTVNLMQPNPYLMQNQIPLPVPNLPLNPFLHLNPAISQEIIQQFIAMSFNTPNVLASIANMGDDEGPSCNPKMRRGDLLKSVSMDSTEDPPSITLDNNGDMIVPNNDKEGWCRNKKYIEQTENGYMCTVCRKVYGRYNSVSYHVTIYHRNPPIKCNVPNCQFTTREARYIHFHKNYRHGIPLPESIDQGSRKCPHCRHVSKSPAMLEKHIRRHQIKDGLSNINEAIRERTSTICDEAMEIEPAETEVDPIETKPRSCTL
# Assays:
# ELT-3::FLAG (C. elegans) = molecular target: T1, ELT-3::FLAG (C. elegans); assay: co-IP; HEK293T cells co-expressing the tagged proteins, lysed 48 h post transfection; supernatant incubated with Anti-GFP or Anti-DYKDDDDK affinity beads 2-4 h at 4 °C; washed with lysis buffer and wash buffer (20 mM Tris, 150 mM KCl, 0.5% NP-40, 1 mM EDTA, 10% glycerol, pH 7.5); western blot for GFP and FLAG
# PQM-1::FLAG (C. elegans) = molecular target: T2, PQM-1::FLAG (C. elegans); assay: as above
binder,measurement,setting,value
"GFP::HMP-2 (protein, UniProt O44326 1-678) MLLHSTNSYSIFTDHEVETRTSRIRSAMFPDWIPPTSAAEATNSTTSIVEMMQMPTQQLKQSVMDLLTYEGSNDMSGLSLPDLVKLMCDHDESVVARAVHRAYMLSREDPNFFNAPGFDHRSFVEALMAASKSSNVNVRRNAIGALSHMSEQRGGPLLIFRSGGLAEIIRMLYDSLESVVHYAVTTLRNLLMHVSDSRAQARALNAVEALTPHLHKTNPKLLAQVADGLYFLLIDDAPSKITFLSLLGPQILVSILREYSDHRKLIYTVVRCIRSLSVCPSNKPALISLGCLPALYVELCTAKDERSQTAILVAMRNLSDSATNEENLTQLIIKLLEIIRVANDGMTACACGTLSNLTCNNTRNKQTVCSHGGIDALVTAIRRLPEVEEVTEPALCALRHCTARHSLAEEAQSELRFCQAFPVILDQLETLRTPVIKAALGVIRNSALLQTNLIELTQEQTANGHTAVSLTMDILRRAITAIEENPDIAVDGVPMWGVIEGAVSALHQLANHPAVAAACCDDIGQVGNPECPPFLDLLHRLLAHPRLGSMDDEVLEREILGLLYQLSKRPDGARAVESTGVSALLMESRGSQYKSVVTYANGVLSNLKRGDSAAIMNMSNSYDYEMSGSAADWQRDGLERELFAEMYPTNDGGHSESINMALNNSQMRPNHNWYDTDL",binding,ELT-3::FLAG (C. elegans),binds
same,binding,PQM-1::FLAG (C. elegans),binds
